Results deposited as PubChem BioAssay AID1259272 (Sanger Institute, 2017).

- Test: 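Kinome-wide siRNA search for genes whose silencing boosts targeted drug effects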 (primary screen)
- System: SW1116 human colorectal cancer cells
- Reagents: siRNA pool against human genes
- Challenge: anchor drugs BYL719 (1 µM), cetuximab (5 µg/ml) or trametinib (10 nM), or DMSO vehicle; exposure length not given
- Detection: 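Cell survival as a fraction of wells given a non-targeting pool, averaged over replicates; robust z-score without drug; synergy score for each of BYL719, cetuximab and trametinib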
- Reading the numbers: viability z-score, no drug: higher = more cells remaining; strongly negative means essential gene; viability, no drug: higher = more viable cells
- Units: viability, no drug in fraction of control
- Hit rule: 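Called essential if the drug-free knock-down gives a robust viability z-score below -3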
- Meaning of the calls: active = essential (knock-down alone); inactive = no change
Here is an unselected part of 794 deposited reagents. 7 of all reagents (0.88%) were called active. 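Essential calls reflect knock-down without drug only, not synergy with drugs; drug exposure length not given.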 No viability above 1 is reported: the scale is capped. Not all columns of the deposit are shown. The record does not give: the amount of reagent, the time to read-out.

Against BRSK1 (BR serine/threonine kinase 1) the deposit lists viability z-score, no drug 0.322; viability, no drug 0.945; inactive.
After knock-down of PIKFYVE (phosphoinositide kinase, FYVE-type zinc finger containing) the results were viability z-score, no drug 0.644; viability, no drug 0.979; inactive.
CAMK1 (calcium/calmodulin dependent protein kinase I) gave viability z-score, no drug 0.315; viability, no drug 0.944; inactive.
After knock-down of EPHA5 (EPH receptor A5), the screen gave viability z-score, no drug -0.737; viability, no drug 0.832; inactive.
For PAK2 (p21 (RAC1) activated kinase 2), the entry reads viability z-score, no drug 0.842; viability, no drug 1; inactive.
With knock-down of PRKCA (protein kinase C alpha), the screen gave viability z-score, no drug -1.08; viability, no drug 0.796; inactive.
PIK3R3 (phosphoinositide-3-kinase regulatory subunit 3) showed viability z-score, no drug 0.842; viability, no drug 1; inactive.
TAOK1 (TAO kinase 1) gave viability z-score, no drug -1.06; viability, no drug 0.797; inactive.
With knock-down of SPEG (striated muscle enriched protein kinase), the screen gave viability z-score, no drug 0.842; viability, no drug 1; inactive.
CDK12 (cyclin dependent kinase 12) showed viability z-score, no drug -0.586; viability, no drug 0.848; inactive.
CDKN1A (cyclin dependent kinase inhibitor 1A) scored viability z-score, no drug 0.487; viability, no drug 0.962; inactive.
With knock-down of ALPK3 (alpha kinase 3), the record shows viability z-score, no drug 0.842; viability, no drug 1; inactive.

Reprinted from the listing for reference:
CAMK1 (calcium/calmodulin dependent protein kinase I) — viability z-score, no drug = 0.315; viability, no drug = 0.944; outcome = inactive
EPHA5 (EPH receptor A5) — viability z-score, no drug = -0.737; viability, no drug = 0.832; outcome = inactive

Further entries follow:
For RNASEL (ribonuclease L), the entry reads viability z-score, no drug -0.948; viability, no drug 0.809; inactive.
Knock-down of ARAF (A-Raf proto-oncogene, serine/threonine kinase) resulted in: viability z-score, no drug 0.842; viability, no drug 1; inactive.
Depletion of PTGS1 (prostaglandin-endoperoxide synthase 1) gave: viability z-score, no drug 0.393; viability, no drug 0.952; inactive.
With knock-down of PIP4K2A (phosphatidylinositol-5-phosphate 4-kinase type 2 alpha) the results were viability z-score, no drug 0.842; viability, no drug 1; inactive.
For CDK6 (cyclin dependent kinase 6), the entry reads viability z-score, no drug -0.376; viability, no drug 0.87; inactive.
CILK1 (ciliogenesis associated kinase 1) showed viability z-score, no drug -0.631; viability, no drug 0.843; inactive.
Silencing of MAK (male germ cell associated kinase) gave: viability z-score, no drug -0.549; viability, no drug 0.852; inactive.
With knock-down of PAK4 (p21 (RAC1) activated kinase 4) the results were viability z-score, no drug 0.464; viability, no drug 0.96; inactive.
SPHK2 (sphingosine kinase 2) gave viability z-score, no drug -0.29; viability, no drug 0.879; inactive.
Against PFKFB2 (6-phosphofructo-2-kinase/fructose-2,6-biphosphatase 2), the values are viability z-score, no drug 0.586; viability, no drug 0.973; inactive.
Silencing of FCSK (fucose kinase) resulted in: viability z-score, no drug -0.567; viability, no drug 0.85; inactive.
For ULK2 (unc-51 like autophagy activating kinase 2) the deposit lists viability z-score, no drug -1.72; viability, no drug 0.727; inactive.
For ADCK5 (aarF domain containing kinase 5), the values are viability z-score, no drug 0.842; viability, no drug 1; inactive.
For AKAP9 (A-kinase anchoring protein 9), the values are viability z-score, no drug -0.625; viability, no drug 0.844; inactive.
DYRK2 (dual specificity tyrosine phosphorylation regulated kinase 2) showed viability z-score, no drug -0.225; viability, no drug 0.886; inactive.
For DGKG (diacylglycerol kinase gamma) the deposit lists viability z-score, no drug 0.842; viability, no drug 1; inactive.
After knock-down of DGKK (diacylglycerol kinase kappa), the record shows viability z-score, no drug 0.842; viability, no drug 1; inactive.
Against PGK2 (phosphoglycerate kinase 2) the deposit lists viability z-score, no drug 0.842; viability, no drug 1; inactive.
After knock-down of KDR (kinase insert domain receptor), the screen gave viability z-score, no drug -0.0198; viability, no drug 0.908; inactive.
Depletion of MAPK11 (mitogen-activated protein kinase 11) came out at: viability z-score, no drug 0.842; viability, no drug 1; inactive.
After knock-down of PRKCE (protein kinase C epsilon), the record shows viability z-score, no drug -1.07; viability, no drug 0.797; inactive.
EFNA3 (ephrin A3) gave viability z-score, no drug 0.842; viability, no drug 1; inactive.
With knock-down of LATS2 (large tumor suppressor kinase 2) the results were viability z-score, no drug 0.842; viability, no drug 1; inactive.
Silencing of ATRX (ATRX chromatin remodeler) gave: viability z-score, no drug 0.842; viability, no drug 1; inactive.
